Some of the results follow.
What follows are compounds tested on T1, CTL2-GFP (C. trachomatis L2/434/Bu, GFP-expressing). Details: bulk GFP, single well; 28.5 h, 10 µM; inhibitor.
T1 construct: L2/434/Bu, GFP-expressing
Set-up: species or system HeLa; Intracellular C. trachomatis growth in HeLa cells, bulk GFP fluorescence relative to DMSO

SMILES	% of control remaining
CCCc1nn(CC(=O)N2CCCC2)c(=O)c2cc3ccsc3n12 [CBK284145]	122.973%
Cc1nc2ccccc2c(=O)n1Cc1cccnc1 [CBK288092]	142.652%
O=C(CCC1CCCCC1)Nc1c[nH]c(=O)[nH]c1=O [CBK287867]	94.9363%
NC(=S)N1N=C(c2ccccc2)CC1c1ccccc1 (stereo not drawn) [CBK288435]	93.3502%
CCCN1CCN(C(=O)c2ccc(=O)n(C)c2)C(Cc2ccccc2-c2ccccc2)C1=O (stereo not drawn) [CBK285836]	97.1314%
O=C(O)C1Cc2nc[nH]c2C(c2ccc(F)cc2)N1 (stereo not drawn) [CBK286970]	119.738%
COc1ccc(C(=O)Cn2nc3nnc(-c4ccccc4)c(-c4ccccc4)n3c2=O)cc1 [CBK286181]	138.44%
CC(=O)Nc1cccc(NC(=O)N2CCN(C3CCN(C)CC3)CC2)c1 [CBK155901]	90.578%
COC(=O)c1sc(NC(=O)c2cccnc2)c(C#N)c1C [CBK265007]	113.241%
Cc1cc(C)c(NC(=O)C2CCCCN2C23CC4CC(CC(C4)C2)C3)c(C)c1 (stereo not drawn) [CBK261559C]	101.985%
O=C(Nc1ccc(Cl)cc1)C(Cc1ccccc1)N1C(=O)c2cc(Cl)c(Cl)cc2C1=O (stereo not drawn) [CBK264172]	120.258%
O=C(Nc1ccc2c(c1)OCCO2)c1cnccn1 [CBK220830]	100.707%
CCCNC(=O)CN(C)CC(=O)Nc1sc2c(c1C#N)CCC(C)C2 (stereo not drawn) [CBK305845]	103.476%
CS(=O)(=O)N(CC(=O)Nc1ccccc1F)c1ccc(I)cc1 [CBK265265]	115.54%
Nc1ccn([C@H]2C[C@@H](O)[C@@H](CO)O2)c(=S)n1 [CBK201187]	189.137%
CC(Oc1ccc(F)cc1)C(=O)Nc1ccc(S(N)(=O)=O)cc1 (stereo not drawn) [CBK265506]	137.815%
O=C(CN1C(=O)c2ccc([N+](=O)[O-])cc2C1=O)Nc1cc(Cl)ccc1C(=O)O [CBK263472]	108.181%
COCC(=O)N1CCc2sccc2C1c1ccc(NCc2cccc(OC)c2)cc1 (stereo not drawn) [CBK286454]	119.732%
COc1ccc(S(=O)(=O)N2CCN(C(=O)c3cc(-c4ccncc4)nc4c(C)c(Cl)ccc34)CC2)cc1 [CBK267739]	135.247%
COCCNS(=O)(=O)c1cccc2c1CN(C(=O)CC1CCCC1)CC2 [CBK306982]	157.774%
CNC(=O)c1ccc(-c2cc(OC)c(OC)c(OC)c2)nc1NCCOC [CBK105997]	159.679%
O=[N+]([O-])c1ccc(CN2C[C@H](O)C[C@H]2c2nc(-c3ccccc3)no2)cc1 [CBK288833]	117.583%
Cc1ccn2c(NS(=O)(=O)c3ccc(CCC(=O)O)cc3)c(-c3cccs3)nc2c1 [CBK297480]	97.1711%
COc1ccc(-c2cc(Nc3ccc(N(C)C)cc3)ncn2)cc1OC [CBK036969]	104.822%
Cc1cc(C)nc(NC2=NC(=O)CC(C(=O)O)N2c2ccc(Cl)cc2Cl)n1 (stereo not drawn) [CBK286968]	141.503%
O=C(Cc1ccsc1)N1C[C@@H]2CCCCN(CC3CC3)[C@@H]2C1 [CBK285507]	106.327%

SMILES	% of control remaining
NC1CCC(Nc2cncc(-c3ccc(F)c(Cl)c3)n2)CC1 (stereo not drawn) [CBK037893]	79.7322%
COc1cc(CN2CCCCC2CO)c([N+](=O)[O-])cc1OC (stereo not drawn) [CBK261730]	118.661%
COc1ccc(CCN(CCc2ccccc2)CC(O)COc2cccc3c2CCCC3)cc1 (stereo not drawn) [CBK024506T]	49.0199%
COc1ccccc1NC(=O)c1sc2ncn(CC(=O)NC3CCCCC3)c(=O)c2c1C [CBK265788]	144.352%
CC(=O)Nc1ccc(Nc2cc(-c3ccc(CC(C)C)cc3)ncn2)cc1 [CBK090723]	151.739%
Cc1cc(F)c(S(N)(=O)=O)cc1NC(=O)c1ccc(CN2CCOCC2)o1 [CBK059376C]	128.398%
CC(C)Cn1cncc1CNC(=O)Nc1ccc2c(cnn2C)c1 [CBK307405]	114.685%
Clc1ccccc1-c1nccnc1NCc1cccs1 [CBK037362]	185.873%
Cc1nc(CCC(=O)N2Cc3cnn(Cc4ccc(F)cc4)c3C2)n[nH]1 [CBK306993]	96.3452%
Cc1cc(Cl)cc(Cl)c1S(=O)(=O)Nc1nc2c(s1)C(=O)CC(C)(C)C2 [CBK200034]	105.081%
COC(=O)c1cc(C#N)c(=O)n(CC(O)COc2ccccc2)c1 (stereo not drawn) [CBK304991]	108.654%
COc1ccc(CNC(=O)CSc2cnn[nH]2)cc1 [CBK269881]	122.462%
O=C(NCCn1nc(-c2cccs2)ccc1=O)c1ccco1 [CBK283838]	102.457%
CN(Cc1ccc2c(c1)OCCO2)C(=O)CSc1n[nH]c(=O)n1Cc1ccccc1 [CBK297876]	133.753%
COc1ccc(Nc2ccc(-c3ccsc3)cn2)c(C)c1 [CBK036855]	84.4393%
CC1SC2(C(=O)Nc3ccccc32)N(c2ccc(F)cc2)C1=O (stereo not drawn) [CBK093463]	119.694%
COc1cccc(C2(C(=O)N3CCc4nc[nH]c(=O)c4C3)CC2)c1 [CBK304488]	154.085%
O=C(c1cscn1)N1CCCc2ccccc21 [CBK200348]	96.3789%
O=C(Nc1ccc(-c2nnc(-c3ccco3)o2)cc1)C(c1ccccc1)c1ccccc1 [CBK263452]	100%
O=C1CCC(=O)N1CCOc1nccnc1N1CCN(Cc2ccc([N+](=O)[O-])cc2)CC1 [CBK084294]	119.987%
COc1ccc(-c2cn(-c3cccc(NC(C)=O)c3)nn2)cc1 [CBK113008]	176.987%
Cc1nc2c(c(=O)[nH]1)CCN(Cc1cc(C)n(C3CC3)c1C)C2 [CBK282338]	110.856%
Nc1nc2n(c1C(=O)c1ccc(Cl)cc1)CCC2 [CBK288194]	152.137%
Cn1ncc2c1CCCN(C(=O)c1ccccc1C(F)(F)F)C2 [CBK282251]	142.444%
FC(F)(F)c1ccc(Oc2ccc(-c3noc(-c4cccnc4)n3)cc2)nc1 [CBK270166]	119.841%
COc1cc(/C=C2/NC(=O)N(c3ccccc3)C2=O)ccc1OCc1ccc(C(=O)O)cc1 [CBK265139]	100%

Taken from the listing, 4 compounds:
SMILES	% of control remaining
COc1ccc(CCN(CCc2ccccc2)CC(O)COc2cccc3c2CCCC3)cc1 (stereo not drawn) [CBK024506T]	49.0199%
COc1ccccc1NC(=O)c1sc2ncn(CC(=O)NC3CCCCC3)c(=O)c2c1C [CBK265788]	144.352%
CC(=O)Nc1ccc(Nc2cc(-c3ccc(CC(C)C)cc3)ncn2)cc1 [CBK090723]	151.739%
Cc1cc(F)c(S(N)(=O)=O)cc1NC(=O)c1ccc(CN2CCOCC2)o1 [CBK059376C]	128.398%

Additional entries:

SMILES	% of control remaining
COc1ccc(C(NC(=O)C2CCN(C(=O)Oc3ccccc3)CC2)c2ccccc2C)cn1 (stereo not drawn) [CBK059715]	123.613%
O=C(CN1CCCCC1)NCCNc1ccc([N+](=O)[O-])cc1Cl [CBK264922]	100%
COc1ccc(CC(=O)N2CCCC(c3cccc(Cc4cccc(C)c4)n3)C2)cc1 (stereo not drawn) [CBK286498]	81.6989%
Cc1ccc(OCC(=O)Nc2cccnc2)c(-n2nc3ccccc3n2)c1 [CBK270281]	159.711%
O=S(=O)(Nc1nccs1)c1ccc(Nc2ncnc3ccccc23)cc1 [CBK269487C]	15.6204%
Cc1ccc(Cl)cc1N1CCN(S(=O)(=O)N(C)C)CC1 [CBK270284]	142.951%
Cc1ccc(S(=O)(=O)NCCC(=O)NO)cc1 [CBK023472]	92.1444%
O=C(Cn1c2ccccc2c2ccccc21)Sc1nc2ccccc2[nH]1 [CBK263788]	100%
COc1ccc(C(C)NC(=O)CCn2ccc3ccncc32)cc1 (stereo not drawn) [CBK284798]	139.638%
CN1CCN(c2nccnc2-c2ccco2)CC1 [CBK038050]	157.656%
NC(=O)COc1ccc(/C=C/c2cc(C(F)(F)F)[nH]c(=O)n2)cc1 [CBK269475]	146.026%
COc1ccc(-c2cc(Nc3ccc(OC)cc3OC)ncn2)cc1 [CBK090763]	90.3463%
COc1ccccc1C1(NC(=O)c2c(C)noc2C)CCCC1 [CBK283644]	121.091%
COc1cc(C)nc(NN)n1 [CBK262078]	101.049%
O=C(NCCc1c[nH]cn1)N1CCN(c2ccc(F)cc2)CC1 [CBK156394]	117.129%
CC(C)(C)c1cc(-c2nc3ccccc3[nH]2)c(O)c(-c2nc3ccccc3[nH]2)c1 [CBK266084]	122.82%
CCCNC(=O)Cn1cnc2sc(C(=O)Nc3ccc(OCC)cc3)c(C)c2c1=O [CBK071920]	120.748%
NS(=O)(=O)c1ccc(NC(=S)NNS(=O)(=O)c2ccc(Br)cc2)cc1 [CBK266928]	127.179%
O=C(NCc1cccc2ccccc12)N1CCCC(CO)C1 (stereo not drawn) [CBK156035]	114.065%
CCOC(=O)C1=CC2C(=NC3=C2CCCC3)C=C1 (stereo not drawn) [CBK009652]	115.954%
COCCN(CC1CC1)C(=O)NCc1cccc(Cl)c1 [CBK304368]	99.8867%
CC(=O)Nc1ccc(CNC(=O)CN(C)Cc2cc(C)on2)cc1 [CBK307042]	129.099%
Cc1[nH]c2ccccc2c1C(c1ccccc1OCC(=O)O)c1c(C)[nH]c2ccccc12 [CBK266038]	157.28%
CN(C)c1ccc(-c2nccnc2NCc2ccc(S(C)(=O)=O)cc2)cc1 [CBK036902]	108.788%
Nc1ncc(-c2ccc(C(=O)N3CCOCC3)cc2)nc1C(=O)NC1CCCCC1 [CBK149160]	111.583%
COc1ccccc1CN(C)C(=O)Nc1ccc(S(N)(=O)=O)cc1 [CBK306026]	148.556%
